# From patent publication US20180289957A1, “REMINERALISATION OF CALCIFIED TISSUE” (Reminova Ltd., priority 2008, published 2018)
# Test system: extracted tooth
# Test: Current-time response of an extracted tooth (saline pad) after hypochlorite pre-treatment
# Description: In this experiment the current-time responses of an extracted tooth after the application of −I V at the working electrode were recorded. One electrode the shorted reference/counter electrode) was a 0.5 mm stainless steel wire inserted into the tooth root. The other electrode (the working electrode) was a Pt sheet electrode of area ca 0.25 cm^2 held in contact with a saline-soaked tissue pad, which in turn was held in contact with the tooth surface close to the enamel lesion.
# The initial current after this topical hypochlorite pre-treatment was 18 μA, over 20% higher than that of the tooth before pre-treatment, and the extended-time current was similar.
smiles,measurement,setting,value
"OCl [hypochlorite, sodium hypochlorite]",initial current after topical hypochlorite pre-treatment,"saline response, hypochlorite-soaked pad 3 mins, no voltage during pre-treatment, -1 V at working electrode",18 μA
same,initial current higher than that of the tooth before pre-treatment,topical hypochlorite pad 3 mins,over 20%
